Results are given in words; binding and its absence hold for the method and conditions named. In cells and extracts the contact can be indirect. Some binding calls cover weakened binding; strength is not graded here.

Sequences of proteins named here, by UniProt entry; tags and fusion partners are left off.
UniProt O00629: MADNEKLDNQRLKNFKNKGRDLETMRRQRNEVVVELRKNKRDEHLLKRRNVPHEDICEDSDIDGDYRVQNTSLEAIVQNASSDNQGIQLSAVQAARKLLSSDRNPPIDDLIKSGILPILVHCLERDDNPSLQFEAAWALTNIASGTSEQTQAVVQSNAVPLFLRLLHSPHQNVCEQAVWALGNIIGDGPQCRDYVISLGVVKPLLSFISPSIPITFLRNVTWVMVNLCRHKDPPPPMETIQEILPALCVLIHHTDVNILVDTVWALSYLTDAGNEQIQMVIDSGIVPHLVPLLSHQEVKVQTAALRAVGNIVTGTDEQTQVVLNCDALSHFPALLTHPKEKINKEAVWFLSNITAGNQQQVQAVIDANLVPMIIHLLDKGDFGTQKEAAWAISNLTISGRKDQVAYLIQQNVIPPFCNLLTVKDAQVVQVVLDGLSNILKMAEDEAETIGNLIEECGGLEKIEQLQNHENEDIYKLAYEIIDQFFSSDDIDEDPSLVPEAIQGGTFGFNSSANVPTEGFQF
UniProt P52294: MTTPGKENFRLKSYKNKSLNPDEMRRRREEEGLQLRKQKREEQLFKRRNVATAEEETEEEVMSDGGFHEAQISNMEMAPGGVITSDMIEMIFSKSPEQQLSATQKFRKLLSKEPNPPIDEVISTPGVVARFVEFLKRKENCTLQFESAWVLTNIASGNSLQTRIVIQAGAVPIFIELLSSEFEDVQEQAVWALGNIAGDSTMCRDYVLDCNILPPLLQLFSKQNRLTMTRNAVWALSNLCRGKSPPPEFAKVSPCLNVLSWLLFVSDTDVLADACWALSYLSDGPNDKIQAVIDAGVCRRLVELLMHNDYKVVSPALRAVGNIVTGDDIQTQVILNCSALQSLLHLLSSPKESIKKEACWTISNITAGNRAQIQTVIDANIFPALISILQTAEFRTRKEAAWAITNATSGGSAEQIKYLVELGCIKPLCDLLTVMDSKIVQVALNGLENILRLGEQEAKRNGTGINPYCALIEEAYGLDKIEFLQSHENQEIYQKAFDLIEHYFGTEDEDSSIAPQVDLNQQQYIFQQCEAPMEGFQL
UniProt K9N643: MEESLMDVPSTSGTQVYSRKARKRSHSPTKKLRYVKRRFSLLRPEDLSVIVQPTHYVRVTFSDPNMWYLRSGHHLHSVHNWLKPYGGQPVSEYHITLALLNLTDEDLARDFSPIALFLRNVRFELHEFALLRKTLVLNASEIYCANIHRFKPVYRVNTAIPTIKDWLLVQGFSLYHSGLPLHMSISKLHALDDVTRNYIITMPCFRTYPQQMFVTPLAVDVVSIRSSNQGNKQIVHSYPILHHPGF

The record followed here is paper PMC8956657.

In assay [1] the target is full-length HA-tagged IMPα3 (UniProt O00629). The assay can be described thus: co-IP.
The target in assay [2] is full-length HA-tagged IMPα5 (UniProt P52294). The assay can be described thus: co-IP.

Consider “full-length FLAG-tagged MERS-CoV ORF4b (from UniProt K9N643 1-246)”, for which the binding result in assay [1] and in assay [2] was “binds” throughout.
